Record: PubChem BioAssay AID1259308 (NCATS, 2017)
The whole screen tested about 59,000 reagents; shown is a random part of them. Of all reagents, about 1,510 (2.6%) got an active call. 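Calls use total luciferase alone and ignore viability, so some active siRNAs may act by altering cell number.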 Reagents against one gene are numbered here. Not all columns of the deposit are shown. No sequences are given here.

Aim: 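Genes whose loss raises luciferase production in HEK293 cells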 (primary screen)
Cells: human HEK293 embryonic kidney cells stably expressing firefly luciferase (HEK-CMV-Luc2-Hygro)
Reagent: single siRNA against human genes, 0.8 pmol siRNA per well
Duration: 72 h
Measurement: 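Reporter luminescence and viable-cell signal on separate replicate plates, given as percent of non-targeting control and median/MAD z-scores, plus per-cell luciferase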
Reading the numbers: total luciferase, z-score: higher = more reporter protein produced
Hit rule: 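An siRNA counts as active if its total luciferase robust z-score exceeds 3; genes with two or more such siRNAs out of three were retested with fresh siRNAs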
Calls: active = raised luciferase; inactive = no rise

total luciferase, z-score, by gene and reagent
MTG1: #1 0.292 inactive; #2 -0.904 inactive; #3 0.0303 inactive
ANKRD33B: #1 1.39 inactive; #2 -1.59 inactive; #3 2.18 inactive
NOTO: #1 -1.58 inactive; #2 0.622 inactive; #3 -0.672 inactive
PDE4C: #1 0.517 inactive; #2 -0.171 inactive; #3 -0.327 inactive
AP4E1: #1 0.286 inactive; #2 0.358 inactive; #3 -0.825 inactive
NRAS: #1 -0.172 inactive; #2 1.19 inactive; #3 0.0365 inactive
DRD5: #1 1.76 inactive; #2 -0.447 inactive; #3 -0.807 inactive
CISD1: #1 0.424 inactive; #2 -0.0347 inactive; #3 -0.112 inactive
LINC01144: #1 0.518 inactive; #2 -0.0142 inactive; #3 -0.409 inactive
C11orf71: #1 -1.23 inactive; #2 -1.06 inactive; #3 2.73 inactive
LIPF: #1 0.636 inactive; #2 1.56 inactive; #3 0.977 inactive
NR2C2: #1 -1.06 inactive; #2 0.905 inactive; #3 -0.829 inactive
SPC24: #1 0.155 inactive; #2 -0.304 inactive; #3 -0.62 inactive
